In PubChem BioAssay AID540256 (National Center for Advancing Translational Sciences (NCATS), 2011):
Hit rate of the full screen: of about 300,000 compounds, about 3,700 (1.2%) were called active. Inconclusive means that the source gave no clear call. Such entries were picked first, then a sample of the others. The call rests on the fitted dose curve; tested in HEK293 cells. Potencies beside an inconclusive call are fits to weak or partial responses and may not hold up.

Assay: qHTS for Inhibitors of binding or entry into cells for Lassa Virus; further: nearly all actives have a fitted effect of over 50% in size
Conditions: Lassa virus pseudotype entry inhibition, cell reporter; series mostly up to 37.9 µM
Potency means the concentration at half of the fitted maximal effect.

Row | Compound | Potency
1 | CSc1cccc(NC(=O)c2ccc(CN3CCc4ccccc4C3)cc2)c1 | inconclusive: 17.8 µM [inhibitor, single point]
2 | CN(C)c1ccc(-c2nc3ccccn3c2/N=C/c2ccc(Br)cc2)cc1 | active: 7.08 µM
3 | COc1cc2c(cc1OC)-c1c(OC)c(OC)cc3ccnc(c13)C2=O | inconclusive: 3.26 µM [inhibitor, partial curve, poor fit]
4 | O=S(=O)(C(=CNc1ccccc1)S(=O)(=O)c1ccccc1)c1ccccc1 | inactive
5 | O=P(c1ccccc1)(c1nc2ccccc2s1)N1CCOCC1 (configuration not stated) | inactive
6 | Oc1ccc(F)cc1-c1cc(-c2ccc3c(c2)OCCO3)n[nH]1 | inconclusive: 11.2 µM [inhibitor, partial curve]
7 | CCOc1ccc(S(=O)(=O)Nc2ccc(OC)nc2)cc1 | inactive
8 | CCCSc1nc2sc3c(c2c(=O)n1Cc1ccccc1)CC(C)(CC)OC3 (configuration not stated) | inconclusive: 35.5 µM [inhibitor, single point]
9 | C=C(C)c1cccc(C(C)(C)NC(=O)Nc2cccnc2)c1 | inconclusive: 10 µM [inhibitor, partial curve, poor fit]
10 | COc1ccc(C2(CNC(=O)C(=O)Nc3ccc(F)cc3)CCCC2)cc1OC | inactive
11 | COc1ccc(NC(=O)CSc2cc(C)nc3c(-c4ccccc4)cnn23)cc1 | inconclusive: 8.91 µM [inhibitor, single point]
12 | COC(=O)/C(=C/c1cccnc1)NC(=O)c1ccccc1 | inactive
13 | COc1ccc(N(C)S(=O)(=O)c2cccc(C(=O)Nc3cc(OC)ccc3OC)c2)cc1 | inconclusive: 35.5 µM [inhibitor, single point]
14 | COC(=O)C1CC(=O)c2ccsc2C1 (configuration not stated) | inactive
15 | O=C(CCC(=O)OCC(=O)c1ccc(Br)cc1)NC1CCCCC1 | inconclusive: 0.651 µM [inhibitor, single point]
16 | Cc1ccc(-n2nc(C)c(/C=N/NC(=O)c3cccs3)c2Cl)cc1 | inconclusive: 4.47 µM [inhibitor, single point]
17 | COc1ccc(Cc2c(O)nc(SCC(=O)c3ccc(OC)cc3)[nH]c2=O)cc1 | inconclusive: 35.5 µM [inhibitor, single point]
18 | CCOC(=O)c1c(CN2CCOCC2)n(-c2ccccc2)c2cc(Br)c(O)c(CN(C)C)c12 | inconclusive: 14.1 µM [inhibitor, partial curve]
19 | Cc1onc(-c2c(F)cccc2Cl)c1C(N)=S | inconclusive: 35.5 µM [inhibitor, single point]
20 | CS(=O)(=O)N1CCN(c2ccccc2NC(=S)NC(=O)c2cccs2)CC1 | inconclusive: 1.41 µM [inhibitor, full curve, poor fit]
21 | COCOCCn1cc(CN2CCS(=O)(=O)N(Cc3ccc(-c4ccccc4)cc3)C(C(C)C)C2=O)nn1 (configuration not stated) | inconclusive: 14.1 µM [inhibitor, partial curve, poor fit]
22 | COc1cc(Cl)c(C)cc1NC(=O)CNC(C)c1ccccc1OC (configuration not stated) | inconclusive: 35.5 µM [inhibitor, single point]
23 | COc1ccccc1N1CCN(CCCNC(=O)c2cnn(-c3ccccc3)c2C2CCN(C(=O)OC(C)(C)C)CC2)CC1 | inconclusive: 8.91 µM [inhibitor, partial curve, poor fit]

Row | Compound | Potency
24 | CC(C)NC(=O)c1cc(-c2ccco2)on1 | inconclusive: 0.13 µM [activator, full curve, poor fit]
25 | COc1ccc(CN2CCN(c3ncnc4sc5c(c34)CC(C)CC5)CC2)cc1F (configuration not stated) | inactive
26 | CCCc1cc(C(=O)Nc2cc(Cl)ccc2O)no1 | inconclusive: 14.1 µM [inhibitor, single point]
27 | Cc1cc(Cl)ccc1NC(=O)CN(c1ccccc1Br)S(C)(=O)=O | inconclusive: 35.5 µM [inhibitor, single point]
28 | CC1CCCN(c2oc(-c3cccc4ccccc34)nc2C#N)C1 (configuration not stated) | inconclusive: 0.0082 µM [activator, full curve, poor fit]
29 | Cc1cc(NC(=O)CCC(=O)N(Cc2ccco2)C2(C(=O)NC3CCCC3)CCCCC2)no1 | inconclusive: 35.5 µM [inhibitor, single point]
30 | CCc1ccc(C(=O)N2CCC(c3nc4ccccc4s3)CC2)cc1 | inconclusive: 32.6 µM [inhibitor, single point]
31 | O=C(Cn1ncc2c([nH]c3ccccc32)c1=O)NCC1CCN(Cc2ccc(F)cc2)CC1 | inconclusive: 2.82 µM [activator, single point]
32 | CCc1ccc2oc(-c3cccc(N)c3)nc2c1 | inconclusive: 10 µM [inhibitor, partial curve, poor fit]
33 | COc1cc(OC)c(NC(=O)Cn2c(=O)oc3cc(S(=O)(=O)N4CCCC4)ccc32)cc1Cl | inconclusive: 1.58 µM [inhibitor, full curve, poor fit]
34 | COc1ccc(CCN2C(=O)CS/C2=N/NC(=O)c2ccccc2F)cc1OC | inactive
35 | Cc1nn(-c2ccc([N+](=O)[O-])cc2)c2c1C(c1ccc(OC(F)F)cc1)N1C(=N2)C(=O)Nc2ccccc21 (configuration not stated) | inconclusive: 7.08 µM [inhibitor, partial curve, poor fit]
36 | CCOC(=O)C1CCN(c2nc3cc(OC)ccc3cc2C#N)CC1 | inconclusive: 12.6 µM [inhibitor, single point]
37 | CCCCNC(=O)C1c2ccccc2C(=O)N(c2ccc(OC)cc2)C1c1ccc(OC)cc1 (configuration not stated) | inconclusive: 1.46 µM [inhibitor, partial curve, poor fit]
38 | Cc1ccc(S(=O)(=O)Oc2ccc(/C=C(/NC(=O)c3ccccc3)C(=O)NCCCC(=O)O)cc2)cc1 | inconclusive: 3.16 µM [inhibitor, full curve, poor fit]
39 | CCC(COC(=O)NC)NC(=O)Oc1ccccc1 (configuration not stated) | inactive
40 | Cc1nn(CC(=O)Nc2ccc3c(c2)oc2ccccc23)c(=O)c2ccccc12 | inconclusive: 35.5 µM [inhibitor, single point]
41 | COCCNc1ccc(-c2n[nH]c(=O)c3ccccc23)cc1[N+](=O)[O-] | inconclusive: 6.31 µM [inhibitor, single point]
42 | CN1c2ccsc2/C(=N/Nc2ccc(F)cc2)CS1(=O)=O | inactive
43 | Cn1ccsc1=NC(=O)c1ccc(Cl)cc1 | inactive
44 | CCCCCn1c(-c2ccc(OC)c(OC)c2)nc2ccccc21 | inactive
45 | CN(C)S(=O)(=O)c1cccc(N=c2scc(-c3ccc4c(c3)NC(=O)CO4)n2CC2CCCO2)c1 (configuration not stated) | inconclusive: 35.5 µM [inhibitor, single point]
46 | O=[N+]([O-])c1cc(S(=O)(=O)N2CCCC2)ccc1NCCc1ccccc1 | inactive

3 compounds out of the list, ordered by heavy-atom count, low to high.
Row | Compound | Potency
15 | O=C(CCC(=O)OCC(=O)c1ccc(Br)cc1)NC1CCCCC1 | inconclusive: 0.651 µM [inhibitor, single point]
1 | CSc1cccc(NC(=O)c2ccc(CN3CCc4ccccc4C3)cc2)c1 | inconclusive: 17.8 µM [inhibitor, single point]
45 | CN(C)S(=O)(=O)c1cccc(N=c2scc(-c3ccc4c(c3)NC(=O)CO4)n2CC2CCCO2)c1 (configuration not stated) | inconclusive: 35.5 µM [inhibitor, single point]

Quoted at random: 2 entries already listed
Row | Compound | Potency
3 | COc1cc2c(cc1OC)-c1c(OC)c(OC)cc3ccnc(c13)C2=O | inconclusive: 3.26 µM [inhibitor, partial curve, poor fit]
45 | CN(C)S(=O)(=O)c1cccc(N=c2scc(-c3ccc4c(c3)NC(=O)CO4)n2CC2CCCO2)c1 (configuration not stated) | inconclusive: 35.5 µM [inhibitor, single point]

Further entries follow.

Row | Compound | Potency
47 | O=C1COc2ccc(S(=O)(=O)N3CCN(c4cccc(C(F)(F)F)c4)CC3)cc2N1 | inconclusive: 2.51 µM [inhibitor, full curve, poor fit]
48 | Cc1ccc(Cl)cc1N1CCN(S(=O)(=O)c2ccc3c(c2)CCCN3C(=O)C2CCC2)CC1 | inconclusive: 5.01 µM [inhibitor, full curve]
49 | O=C(Nc1ccc2c(c1)OCCO2)C1CCCN(S(=O)(=O)c2cccs2)C1 (configuration not stated) | inactive
50 | CC(C)C(=O)Nc1ccc([N+](=O)[O-])c(C(F)(F)F)c1 | inconclusive: 0.058 µM [inhibitor, full curve]
51 | Cc1cc(C)cc(-n2ncc3c2CCCC3NC(=O)c2cc(C)[nH]n2)c1 (configuration not stated) | inconclusive: 22.4 µM [inhibitor, single point]
52 | Cc1ccc(Cn2c(SC3CCOC3=O)nc3ccccc3c2=O)cc1 (configuration not stated) | inconclusive: 8.91 µM [activator, partial curve, poor fit]
53 | CC(C)(COC(=O)C(c1ccccc1)c1ccccc1)CN1CCOCC1 | inconclusive: 5.62 µM [inhibitor, full curve, poor fit]
54 | COc1ccc(S(=O)(=O)N2CCOC23CCN(S(=O)(=O)c2cc(F)ccc2F)CC3)cc1 | inconclusive: 6.31 µM [activator, single point]
55 | Cc1c(C)[n+](=O)c(-c2ccc(F)cc2)c(C)n1[O-] | inactive
56 | Nc1c(-c2ccccc2)nc(Cl)nc1-c1ccccc1 | inactive
57 | CN(c1ccccc1)S(=O)(=O)c1ccc(C(=O)NCc2ccccn2)cc1 | inactive
58 | O=C(C1=NN[C@@H]2C(=O)N(c3cccc(F)c3)C(=O)[C@H]12)c1ccc2ccccc2n1 | inactive
59 | O=C(N/N=C\C=C\c1ccc([N+](=O)[O-])o1)c1cccs1 | inconclusive: 20 µM [inhibitor, single point]
60 | Cc1ccc(NC(=O)CSc2nc(-c3cccs3)nc3cc(=O)[nH]n23)cc1 | inactive
61 | COc1cccc(-n2cc3c(c2-c2ccccc2)c(=O)n(C)c(=O)n3C)c1 | inconclusive: 17.8 µM [inhibitor, partial curve, poor fit]
62 | CC(=O)Nc1nnc(-c2ccco2)o1 | inactive
63 | COc1cccc(C2CC(c3cccs3)=NN2C(=O)CSc2nc3ccccc3s2)c1OC (configuration not stated) | inconclusive: 35.5 µM [inhibitor, single point]
64 | Cc1cccn2c(=O)c3cc(C(=O)NCCN4CCOCC4)c(=N)n(Cc4ccc(F)cc4)c3nc12 | active: 5.62 µM
65 | O=[N+]([O-])c1ccc(NCCCN2CCOCC2)c([N+](=O)[O-])c1 | inactive
66 | O=C1c2[nH]nc(-c3ccccc3O)c2C(c2ccccc2F)N1Cc1ccncc1 (configuration not stated) | inconclusive: 3.16 µM [inhibitor, partial curve, poor fit]
67 | CCn1cc(Br)c(C(=O)Nc2ccc(Cl)c(Cl)c2)n1 | inconclusive: 2.06 µM [activator, full curve, poor fit]
